Measured values published in doi:10.1101/330001.
Results are given in words; binding and its absence hold for the method and conditions named. In cells and extracts the contact can be indirect. Some entries that bind do so weakly or less than the wild type.

Sequences of proteins named here, by UniProt entry; tags and fusion partners are left off.
UniProt Q8VD65: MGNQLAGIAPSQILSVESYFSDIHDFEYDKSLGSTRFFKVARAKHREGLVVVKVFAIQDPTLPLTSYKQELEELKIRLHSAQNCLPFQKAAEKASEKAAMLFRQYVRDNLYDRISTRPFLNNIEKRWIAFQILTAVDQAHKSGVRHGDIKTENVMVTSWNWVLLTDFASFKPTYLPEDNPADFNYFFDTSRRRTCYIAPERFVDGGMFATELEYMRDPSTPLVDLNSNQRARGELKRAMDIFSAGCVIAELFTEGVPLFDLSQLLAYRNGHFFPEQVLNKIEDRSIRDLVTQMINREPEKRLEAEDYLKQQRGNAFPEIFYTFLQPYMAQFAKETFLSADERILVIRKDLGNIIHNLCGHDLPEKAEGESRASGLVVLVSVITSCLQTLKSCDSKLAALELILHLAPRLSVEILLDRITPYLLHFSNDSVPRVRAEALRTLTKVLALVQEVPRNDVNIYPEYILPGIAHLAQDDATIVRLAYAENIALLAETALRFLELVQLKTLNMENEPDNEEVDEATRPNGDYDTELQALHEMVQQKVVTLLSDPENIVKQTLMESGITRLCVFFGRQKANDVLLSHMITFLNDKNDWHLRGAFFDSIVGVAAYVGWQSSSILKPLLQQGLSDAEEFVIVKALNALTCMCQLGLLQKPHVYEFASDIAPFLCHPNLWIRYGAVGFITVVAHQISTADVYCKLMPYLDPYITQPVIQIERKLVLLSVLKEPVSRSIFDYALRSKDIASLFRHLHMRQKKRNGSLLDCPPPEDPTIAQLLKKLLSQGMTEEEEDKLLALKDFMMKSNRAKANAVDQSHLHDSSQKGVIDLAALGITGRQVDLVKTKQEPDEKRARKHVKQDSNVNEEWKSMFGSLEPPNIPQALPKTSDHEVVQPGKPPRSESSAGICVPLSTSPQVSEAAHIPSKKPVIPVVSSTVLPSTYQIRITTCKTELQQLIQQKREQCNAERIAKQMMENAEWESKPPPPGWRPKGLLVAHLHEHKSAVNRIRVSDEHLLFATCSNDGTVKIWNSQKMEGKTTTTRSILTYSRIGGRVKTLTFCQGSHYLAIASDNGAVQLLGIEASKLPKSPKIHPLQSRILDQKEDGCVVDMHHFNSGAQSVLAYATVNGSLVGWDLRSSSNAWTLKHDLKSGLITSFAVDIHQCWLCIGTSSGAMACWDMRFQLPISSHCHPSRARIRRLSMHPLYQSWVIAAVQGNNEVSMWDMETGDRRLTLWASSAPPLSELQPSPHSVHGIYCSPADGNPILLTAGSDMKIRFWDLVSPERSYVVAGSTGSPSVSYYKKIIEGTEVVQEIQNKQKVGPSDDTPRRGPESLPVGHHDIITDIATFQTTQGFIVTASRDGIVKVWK
UniProt O88597: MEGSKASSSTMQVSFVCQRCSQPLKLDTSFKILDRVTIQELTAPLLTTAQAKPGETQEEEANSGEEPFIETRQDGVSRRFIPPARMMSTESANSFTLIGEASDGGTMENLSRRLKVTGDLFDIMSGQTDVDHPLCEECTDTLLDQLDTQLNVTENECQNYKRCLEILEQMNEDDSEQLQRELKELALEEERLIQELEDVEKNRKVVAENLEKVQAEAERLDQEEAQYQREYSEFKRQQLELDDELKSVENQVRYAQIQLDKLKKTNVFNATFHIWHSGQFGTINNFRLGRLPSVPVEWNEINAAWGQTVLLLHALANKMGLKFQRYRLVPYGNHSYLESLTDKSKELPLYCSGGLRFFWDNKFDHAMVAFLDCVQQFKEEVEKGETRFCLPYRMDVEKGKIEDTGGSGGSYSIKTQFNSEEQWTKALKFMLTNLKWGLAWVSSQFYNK

Target: Vps15 (mouse (endogenous in ST-Q7 and ST-Q111 cells)) (UniProt Q8VD65)
Experiment: proximity ligation

Beclin 1 (from UniProt O88597 1-448)
binding: binds
